Source: patent US20120258938A1, “Enzymatic Production or Chemical Synthesis and Uses for 5,7-Dienes and UVB Conversion Products Thereof” (priority 2008, published 2012)
At least one structure is not confirmed: it was looked up by name or label, or the drawing left a doubt. Some of these results come from one statement about several compounds together.

Columns and labels:
[1] = cited from earlier work
[2] = test system: neonatal human epidermal keratinocytes (HEKn); assay: [3H]-thymidine proliferation assay in HEKn; assay type: cell-based; conditions: 24 h, 10 nM and 100 nM
Description: Neonatal human epidermal keratinocytes (HEKn) were isolated form neonatal foreskin of African-American donors and grown in HKM (Lonza) medium supplemented with HKGF (Lonza) as described previously (8a,c). For the cell proliferation assay the cells from a third passage were seeded into 24-well plates (TPP, Switzerland) and grown until reaching ˜80% confluence. Secosteroids were dissolved in ethanol and then diluted in keratinocyte medium containing 0.1% BSA (Sigma). Cells were incubated for 24 h then 1 μCi/ml [^3H]-thymidine (Moravek Biochemicals Inc., Brea, Calif.) was added and cells were incubated for further 4 h. Excess of unbound thymidine was removed by washing cells with PBS. Cells were precipitated with 10% trichloroacetic acid (TCA) (Sigma) and then the precipitate dissolved with 1N NaOH. The solution was collected in vials and thymidine incorporation was determined in liquid scintillation counter (Beckman LS 6000, Santa Clara, Calif.).

Structure (SMILES)	calcemic activity [1]	thymidine incorporation into DNA [2]
C=C1CC[C@H](O)C/C1=C/C=C1\CCC[C@@]2(C)[C@H]1CC[C@@H]2[C@@](C)(O)CCCC(C)C [20S(OH)D3, (5Z,7E)-9,10-secocholesta-5,7,10(19)-triene-3β,20S-diol]	lacks this activity	< 50 % of control
C=C1CCC(O)CC1=CC=C1CCCC2(C)C1CCC2C(C)(O)CCCC(C)C (stereo not drawn) [20R(OH)D3, (5Z,7E)-9,10-secocholesta-5,7,10(19)-triene-3β,20R-diol]		< 50 % of control
C=C1/C(=C\C=C2/CCC[C@@]3(C)[C@H]2CC[C@@H]3[C@@](C)(O)CCCC(C)C)C[C@@H](O)C[C@@H]1O [1α,20S-dihydroxyvitamin D3, (5Z,7E)-9,10-secocholesta-5,7,10(19)-triene-1α,3β,20S-triol]	exhibits calcemic activity	
